The values that follow come from PubChem BioAssay AID200 (DTP/NCI, 2004).

The list is a part of this screen's results and no random one: it is rich in T/C values a quarter to a half above the control, in often repeated tests (any T/C) and in doses without a T/C. Further doses and runs are listed elsewhere. T/C gives the treated animals as a percentage of the vehicle group. Some entries give survivors of the animals treated and no T/C: the source files T/C as zero there, which appears to mark a toxic dose or a test without result, not a measured value. Some doses without a T/C left all or most animals alive at the check, yet need not have been tolerated: survival well below the control is almost never listed, so the zero probably covers shortened survival too. Survivors were counted at the toxicity check, usually on the fifth day, unless a day is given; later deaths do not show. Schedules are NCI's codes, read here as Q, the interval in days (D) or hours (H), X, the number of doses. Additions like (4×) give the number of equal values in this list. Some entries were tested several times; the values are given in rising order. For survival time, the PubChem record calls one and a half times the control and up active, and a quarter to a half above the control has no call in these data; cut-offs in other NCI protocols can differ. Some T/C values carry the count of animals alive at the toxicity check (mostly the fifth day); where none is given, no animal had died by that day.

The test relates to B6C3F1 mice, B16 melanoma ip, median survival T/C. Put plainly: NCI In Vivo Anticancer Drug Screen. Data for tumor model B16 Melanoma (intraperitoneal) in B6C3F1 mice. The following applies: T/C endpoint: median survival time, higher T/C = longer survival. An outline of the steps:
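Transplantable tumor in mice; treated vs vehicle control groups; survival or tumor size measured; value = T/C ratio.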

Where [1] appears, read: dose: 30.0 mg/kg/injection, schedule: Q01DX009 (ip), vehicle: Klucel (hydroxypropylcellulose) (HPC).
[2] abbreviates: dose: 10.0 mg/kg/injection, schedule: Q01DX009 (ip), vehicle: saline.
The mark [3] stands for this setting: dose: 20.0 mg/kg/injection, schedule: Q01DX009 (ip), vehicle: saline.
Where [4] appears, read: dose: 100.0 mg/kg/injection, schedule: Q01DX009 (ip), vehicle: saline with Tween-80.
The mark [5] stands for this setting: dose: 6.25 mg/kg/injection, schedule: Q01DX009 (ip), vehicle: saline with Tween-80.
The mark [6] stands for this setting: dose: 25.0 mg/kg/injection, schedule: Q01DX009 (ip), vehicle: saline with Tween-80.
Setting [7] is: dose: 50.0 mg/kg/injection, schedule: Q01DX009 (ip), vehicle: saline with Tween-80.
The mark [8] stands for this setting: dose: 200.0 mg/kg/injection, schedule: Q01DX009 (ip), vehicle: saline with Tween-80.
The mark [9] stands for this setting: dose: 100.0 mg/kg/injection, schedule: Q01DX009 (ip), vehicle: Klucel (hydroxypropylcellulose) (HPC).
The mark [10] stands for this setting: dose: 200.0 mg/kg/injection, schedule: Q01DX009 (ip), vehicle: Klucel (hydroxypropylcellulose) (HPC).
Setting [11] is: dose: 400.0 mg/kg/injection, schedule: Q01DX009 (ip), vehicle: saline with Tween-80.
Setting [12] is: dose: 400.0 mg/kg/injection, schedule: Q01DX009 (ip), vehicle: Klucel (hydroxypropylcellulose) (HPC).

In the case of `C=C(C)C(=O)O[C@H]1CC2=C[C@@H](C[C@@]3(C)O[C@@H]3[C@H]3OC(=O)C(=C)[C@@H]31)OC2=O`, the survivor count runs as follows: under setting [1], 9 of 10; (dose: 60.0 mg/kg/injection, schedule: Q01DX009 (ip), vehicle: Klucel (hydroxypropylcellulose) (HPC)) 0 of 10.
`CN(C)[C@@H]1C(=O)C(C(=O)NCN2CCN(C(=N)N=C(N)N)CC2)=C(O)[C@@]2(O)C(=O)C3=C(O)c4c(O)cccc4[C@@](C)(O)[C@H]3C[C@@H]12`: the survivor count by setting is: under setting [2], 8 of 10; under setting [3], 0 of 10.
`C1OC1CN1CCN(CC2CO2)CC1` (configuration not stated): the T/C reads like this: (dose: 8.0 mg/kg/injection, schedule: Q01DX009 (ip), vehicle: saline with Tween-80) 125 % of control; (dose: 32.0 mg/kg/injection, schedule: Q01DX009 (ip), vehicle: saline with Tween-80) 130 % of control. Besides, where the note is “dose: 64.0 mg/kg/injection, schedule: Q01DX009 (ip), vehicle: saline with Tween-80”, the survivor count is given as 10 of 10.
On to `Cc1cc(=O)n2c3c(c4c(cc13)c(CN(C)C)cc(=O)n4C)OC2`, for which the survivor count under setting [4] was 4 of 10.
Consider `Nc1nc(Br)nc2c1ncn2C1CC(O)C(CO)O1` (configuration not stated), for which, under “dose: 120.0 mg/kg/injection, schedule: Q03HX009 (ip), vehicle: saline”, the survivor count was 8 of 10.
With `BrC1c2cccc3cccc(c23)C1Br` (configuration not stated), the T/C reads like this: under setting [5], 135 % of control; (dose: 12.5 mg/kg/injection, schedule: Q01DX009 (ip), vehicle: saline with Tween-80) 127 % of control; under setting [6], 133 and 137 % of control; under setting [7], 134 % of control; under setting [4], 144 % of control. For the same compound, the survivor count by setting is: under setting [4], 10 of 10; under setting [8], 5 of 10 and 10 of 10.
In the case of `COc1ccc2c(c1OC(C)=O)-c1cc(O)cc3c1C(C2)N(C(=O)CN(CCCl)CCCl)CC3` (configuration not stated), the survivor count runs as follows: under setting [6], 10 of 10; under setting [7], 6 of 10.
Turning to `CSc1ncc2ncn(C3OC(CO)C(O)C3O)c2n1` (configuration not stated), the survivor count is, setting by setting: under setting [9], 10 of 10; under setting [10], 10 of 10.
With `CCCC(NC(=O)OCc1ccccc1)C(=O)O` (configuration not stated), under setting [11], the survivor count is 9 of 10.
For the compound `Cc1cccc(Nc2c(N)nc(N)nc2N)c1`, the survivor count by setting is: (dose: 115.0 mg/kg/injection, schedule: Q01DX009 (ip), vehicle: Klucel (hydroxypropylcellulose) (HPC)) 5 of 10; (dose: 170.0 mg/kg/injection, schedule: Q01DX009 (ip), vehicle: Klucel (hydroxypropylcellulose) (HPC)) 4 of 10.
In the case of `NC(CCC(=O)NC(CS)C(=O)NCC(=O)O)C(=O)O` (configuration not stated), the T/C was 113 % of control [9 of 10 alive] (dose: 50.0 mg/kg/injection, schedule: Q01DX009 (ip), vehicle: saline, evaluated on day 52); 97 and 100 % of control (dose: 50.0 mg/kg/injection, schedule: Q01DX009 (ip), vehicle: saline, evaluated on day 60); 106 % of control (dose: 100.0 mg/kg/injection, schedule: Q01DX009 (ip), vehicle: saline, evaluated on day 52); 93, 100, 102 % of control (dose: 100.0 mg/kg/injection, schedule: Q01DX009 (ip), vehicle: saline, evaluated on day 60); 94 % of control (dose: 200.0 mg/kg/injection, schedule: Q01DX009 (ip), vehicle: saline, evaluated on day 52); 91, 97, 101 % of control (dose: 200.0 mg/kg/injection, schedule: Q01DX009 (ip), vehicle: saline, evaluated on day 60). In addition, the survivor count (dose: 50.0 mg/kg/injection, schedule: Q01DX009 (ip), vehicle: saline) is 10 of 10.
With `CC(C)(C)N(C(=O)OCC1c2ccccc2-c2ccccc21)C(CO)C(=O)O` (configuration not stated), the survivor count is, setting by setting: under setting [10], 10 of 10; under setting [12], 0 of 10.
In the case of `CC[C@]1(O)C[C@H]2CN(CCc3c([nH]c4ccccc34)[C@@](C(=O)OC)(c3cc4c(cc3OC)N(C=O)[C@H]3[C@@](O)(C(=O)OC)[C@H](OC(C)=O)[C@]5(CC)C=CCN6CC[C@]43[C@@H]65)C2)C1`, the T/C (dose: 0.01 mg/kg/injection, schedule: Q01DX009 (ip), vehicle: saline) is 138 % of control; the T/C (dose: 0.03 mg/kg/injection, schedule: Q01DX009 (ip), vehicle: saline) was 132 % of control; the T/C (dose: 0.06 mg/kg/injection, schedule: Q01DX009 (ip), vehicle: saline) is 145 % of control; the T/C (dose: 15.63 micrograms/kg/injection, schedule: Q01DX009 (ip), vehicle: water) was 147 % of control. The survivor count is 10 of 10 (dose: 0.06 mg/kg/injection, schedule: Q01DX009 (ip), vehicle: water); 9 of 10 (dose: 0.5 mg/kg/injection, schedule: Q01DX009 (ip), vehicle: saline); 10 of 10 (2×) (dose: 0.5 mg/kg/injection, schedule: Q01DX009 (ip), vehicle: water); 4 of 10 (dose: 1.0 mg/kg/injection, schedule: Q01DX009 (ip), vehicle: saline); 8 of 10 and 9 of 10 (dose: 1.0 mg/kg/injection, schedule: Q01DX009 (ip), vehicle: water); 4 of 10 and 7 of 10 (dose: 2.0 mg/kg/injection, schedule: Q01DX009 (ip), vehicle: water). Further, the survivor count runs as follows: (dose: 4.0 mg/kg/injection, schedule: Q01DX009 (ip), vehicle: water) 0 of 10; (dose: 500.0 micrograms/kg/injection, schedule: Q01DX009 (ip), vehicle: water) 10 of 10; (dose: 1000.0 micrograms/kg/injection, schedule: Q01DX009 (ip), vehicle: water) 4 of 10.
Regarding `C/C=C/C=C1/OC(C)=C(C(C)=O)C1=O`, under setting [11], the survivor count is given as 5 of 10.
For `O=NN(CCCl)C(=O)NC1[C@H](O)CCC[C@@H]1O` (some centres not stated), the survivor count runs as follows: under setting [2], 10 of 10; under setting [3], 10 of 10.
`COc1ccc2c(c1)-c1nn(CCCN(C)C)c3ccc([N+](=O)[O-])c(c13)N2`: the T/C reads like this: (dose: 6.25 mg/kg/injection, schedule: Q01DX009 (ip), vehicle: water) 128 and 129 % of control; (dose: 12.5 mg/kg/injection, schedule: Q01DX009 (ip), vehicle: water) 133 [9 of 10 alive] and 135 % of control. Further, the survivor count (dose: 25.0 mg/kg/injection, schedule: Q01DX009 (ip), vehicle: water) is recorded as 10 of 10.
Take `CCOc1ccccc1C(=O)Nc1ccc(Br)cc1`: the T/C is 133 % of control under setting [9] and 128 % of control under setting [12].
Take `CC1Nc2ccccc2NC1C` (configuration not stated): the survivor count under setting [8] is on record as 6 of 10.
`CN1CCN(Cc2nc3cccc4c3c([n+]2[O-])-c2ccccc2-4)CC1`: under setting [11], the survivor count is 0 of 10.
In the case of `COC(=Nc1ccccc1)SSC(C)C`, for the setting “dose: 3.0 mg/kg/injection, schedule: Q01DX009 (ip), vehicle: saline with Tween-80”, the T/C is 128 % of control. The survivor count reads like this: under setting [5], 10 of 10; under setting [7], 10 of 10; under setting [4], 3 of 10; under setting [8], 0 of 10.
As to `O=[N+]([O-])c1ccc(N2CCOCC2)c2c1no[n+]2[O-]`, the survivor count under setting [8] is recorded as 6 of 10.
For the compound `COc1cc2c(c(OC)c1OC)-c1cccc(=O)cc1C(NC(C)=O)CC2` (configuration not stated), the T/C by setting is: (dose: 5.0 mg/kg/injection, schedule: Q01DX009 (ip), vehicle: Klucel (hydroxypropylcellulose) (HPC)) 144 % of control; (dose: 10.0 mg/kg/injection, schedule: Q01DX009 (ip), vehicle: Klucel (hydroxypropylcellulose) (HPC)) 148 % of control. Also, the survivor count is, setting by setting: (dose: 20.0 mg/kg/injection, schedule: Q01DX009 (ip), vehicle: Klucel (hydroxypropylcellulose) (HPC)) 2 of 10; under setting [1], 0 of 10.
As to `C=C[Si]12OCCN(CCO1)CCO2`, the survivor count reads like this: (dose: 50.0 mg/kg/injection, schedule: Q01DX009 (ip), vehicle: Klucel (hydroxypropylcellulose) (HPC)) 9 of 9; under setting [12], 9 of 10 and 10 of 10.
